Laboratory results taken from patent EP2386565A2 (Cambridge Enterprise Ltd., priority 1999, dated 2000).

Assay: peptide made by a vendor (peptide synthesis; Rink amide resin)
Conditions: whole synthesis, HPLC, triacetate salt

CRD-Leu4Ile11Cys13 peptide 3(3-12)[MCP-I]
final purity (method not given): >97%
